Experimental data reported in PMC2861645.

By UniProt entry, the sequences of proteins in these tests, tags left out. Residues count along the entry.
UniProt Q9UGN5: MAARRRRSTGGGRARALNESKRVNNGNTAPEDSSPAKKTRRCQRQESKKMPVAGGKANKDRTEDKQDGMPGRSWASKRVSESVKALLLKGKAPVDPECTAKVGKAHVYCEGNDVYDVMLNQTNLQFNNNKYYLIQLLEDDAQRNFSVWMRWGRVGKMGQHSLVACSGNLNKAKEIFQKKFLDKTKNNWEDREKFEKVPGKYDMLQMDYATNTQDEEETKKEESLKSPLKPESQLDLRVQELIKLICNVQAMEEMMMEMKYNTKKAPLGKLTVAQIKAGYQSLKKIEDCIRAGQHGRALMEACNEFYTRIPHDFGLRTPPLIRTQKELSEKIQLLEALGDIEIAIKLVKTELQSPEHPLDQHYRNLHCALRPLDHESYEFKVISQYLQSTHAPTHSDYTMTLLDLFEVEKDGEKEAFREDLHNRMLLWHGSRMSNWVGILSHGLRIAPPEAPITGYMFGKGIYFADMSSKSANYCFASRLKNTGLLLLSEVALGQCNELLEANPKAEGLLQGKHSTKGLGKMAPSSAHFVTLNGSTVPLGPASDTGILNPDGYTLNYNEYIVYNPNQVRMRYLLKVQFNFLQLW
UniProt P09874: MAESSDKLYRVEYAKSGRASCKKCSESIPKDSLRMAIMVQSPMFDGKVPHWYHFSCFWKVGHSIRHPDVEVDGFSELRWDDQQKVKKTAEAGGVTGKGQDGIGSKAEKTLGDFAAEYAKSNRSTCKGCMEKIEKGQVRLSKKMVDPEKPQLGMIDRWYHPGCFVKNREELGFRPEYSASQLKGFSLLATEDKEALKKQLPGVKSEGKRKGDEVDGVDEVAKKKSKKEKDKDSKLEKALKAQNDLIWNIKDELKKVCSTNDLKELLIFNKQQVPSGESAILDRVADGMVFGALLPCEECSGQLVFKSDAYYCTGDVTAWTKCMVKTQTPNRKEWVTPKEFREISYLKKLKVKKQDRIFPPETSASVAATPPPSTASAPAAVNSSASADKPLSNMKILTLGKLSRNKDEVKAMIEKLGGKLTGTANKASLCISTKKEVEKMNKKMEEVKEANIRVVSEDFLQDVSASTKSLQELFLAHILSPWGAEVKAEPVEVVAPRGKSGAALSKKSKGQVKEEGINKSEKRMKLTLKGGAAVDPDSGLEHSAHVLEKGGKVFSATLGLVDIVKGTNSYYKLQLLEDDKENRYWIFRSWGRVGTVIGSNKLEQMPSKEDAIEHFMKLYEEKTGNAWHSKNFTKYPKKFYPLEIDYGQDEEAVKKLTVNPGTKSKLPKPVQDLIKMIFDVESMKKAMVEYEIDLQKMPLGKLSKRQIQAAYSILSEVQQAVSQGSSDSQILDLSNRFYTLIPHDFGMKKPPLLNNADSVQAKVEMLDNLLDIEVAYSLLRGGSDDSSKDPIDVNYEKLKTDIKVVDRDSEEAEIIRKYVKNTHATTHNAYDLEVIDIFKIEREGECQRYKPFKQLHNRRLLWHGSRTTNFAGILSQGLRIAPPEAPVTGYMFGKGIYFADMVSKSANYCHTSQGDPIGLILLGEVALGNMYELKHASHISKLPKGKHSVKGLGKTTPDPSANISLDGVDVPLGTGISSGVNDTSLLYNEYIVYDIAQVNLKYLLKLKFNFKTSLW
UniProt Q86W56: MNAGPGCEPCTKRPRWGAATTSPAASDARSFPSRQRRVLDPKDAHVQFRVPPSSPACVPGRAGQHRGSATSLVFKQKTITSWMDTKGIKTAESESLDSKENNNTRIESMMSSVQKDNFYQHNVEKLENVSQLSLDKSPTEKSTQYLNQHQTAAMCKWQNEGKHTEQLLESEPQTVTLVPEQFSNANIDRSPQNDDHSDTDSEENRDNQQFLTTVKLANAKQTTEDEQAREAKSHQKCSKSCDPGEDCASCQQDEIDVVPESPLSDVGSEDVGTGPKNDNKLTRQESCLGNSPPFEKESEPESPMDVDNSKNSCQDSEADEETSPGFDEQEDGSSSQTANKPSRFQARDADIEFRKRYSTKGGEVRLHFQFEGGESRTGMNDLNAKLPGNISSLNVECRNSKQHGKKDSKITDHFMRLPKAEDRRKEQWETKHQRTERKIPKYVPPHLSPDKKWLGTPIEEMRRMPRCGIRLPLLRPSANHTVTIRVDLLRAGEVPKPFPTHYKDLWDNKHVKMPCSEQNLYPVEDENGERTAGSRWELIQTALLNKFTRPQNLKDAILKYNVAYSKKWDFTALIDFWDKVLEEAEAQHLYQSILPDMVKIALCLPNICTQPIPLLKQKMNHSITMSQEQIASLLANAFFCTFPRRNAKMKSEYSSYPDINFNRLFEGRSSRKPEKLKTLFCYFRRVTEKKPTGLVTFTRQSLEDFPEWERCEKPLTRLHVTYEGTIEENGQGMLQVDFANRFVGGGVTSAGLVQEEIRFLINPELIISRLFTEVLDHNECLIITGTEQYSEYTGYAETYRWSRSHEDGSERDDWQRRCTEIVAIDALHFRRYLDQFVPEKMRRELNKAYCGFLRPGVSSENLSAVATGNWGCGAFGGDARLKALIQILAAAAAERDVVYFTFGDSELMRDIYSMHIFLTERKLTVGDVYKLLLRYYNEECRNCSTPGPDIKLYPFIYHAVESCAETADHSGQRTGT
UniProt P17844: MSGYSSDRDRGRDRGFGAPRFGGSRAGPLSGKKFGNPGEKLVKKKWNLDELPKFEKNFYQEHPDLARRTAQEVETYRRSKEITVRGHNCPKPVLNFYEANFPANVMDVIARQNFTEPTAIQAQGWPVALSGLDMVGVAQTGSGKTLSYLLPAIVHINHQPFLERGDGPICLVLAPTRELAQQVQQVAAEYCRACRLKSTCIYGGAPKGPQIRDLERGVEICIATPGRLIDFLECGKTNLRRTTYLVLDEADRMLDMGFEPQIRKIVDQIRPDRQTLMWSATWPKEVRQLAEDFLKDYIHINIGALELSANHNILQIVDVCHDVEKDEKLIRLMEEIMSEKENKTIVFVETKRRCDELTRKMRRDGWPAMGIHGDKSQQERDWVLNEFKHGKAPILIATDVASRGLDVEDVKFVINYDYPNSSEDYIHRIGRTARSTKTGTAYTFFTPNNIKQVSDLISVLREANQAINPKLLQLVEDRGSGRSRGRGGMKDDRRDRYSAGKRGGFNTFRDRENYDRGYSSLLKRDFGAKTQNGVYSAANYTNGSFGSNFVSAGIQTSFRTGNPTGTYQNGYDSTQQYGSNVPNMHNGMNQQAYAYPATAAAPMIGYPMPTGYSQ
UniProt P38919: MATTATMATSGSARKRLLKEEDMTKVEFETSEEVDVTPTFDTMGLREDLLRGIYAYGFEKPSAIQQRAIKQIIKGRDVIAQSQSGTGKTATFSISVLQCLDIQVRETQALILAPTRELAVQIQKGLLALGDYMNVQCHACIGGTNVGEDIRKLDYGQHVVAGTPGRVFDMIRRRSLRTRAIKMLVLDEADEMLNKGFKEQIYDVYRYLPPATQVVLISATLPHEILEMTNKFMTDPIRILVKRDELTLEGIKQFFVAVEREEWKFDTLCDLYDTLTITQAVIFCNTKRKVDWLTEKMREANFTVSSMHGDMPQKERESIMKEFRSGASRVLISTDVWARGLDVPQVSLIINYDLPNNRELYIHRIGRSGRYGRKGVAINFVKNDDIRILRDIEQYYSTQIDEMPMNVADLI
UniProt P51114: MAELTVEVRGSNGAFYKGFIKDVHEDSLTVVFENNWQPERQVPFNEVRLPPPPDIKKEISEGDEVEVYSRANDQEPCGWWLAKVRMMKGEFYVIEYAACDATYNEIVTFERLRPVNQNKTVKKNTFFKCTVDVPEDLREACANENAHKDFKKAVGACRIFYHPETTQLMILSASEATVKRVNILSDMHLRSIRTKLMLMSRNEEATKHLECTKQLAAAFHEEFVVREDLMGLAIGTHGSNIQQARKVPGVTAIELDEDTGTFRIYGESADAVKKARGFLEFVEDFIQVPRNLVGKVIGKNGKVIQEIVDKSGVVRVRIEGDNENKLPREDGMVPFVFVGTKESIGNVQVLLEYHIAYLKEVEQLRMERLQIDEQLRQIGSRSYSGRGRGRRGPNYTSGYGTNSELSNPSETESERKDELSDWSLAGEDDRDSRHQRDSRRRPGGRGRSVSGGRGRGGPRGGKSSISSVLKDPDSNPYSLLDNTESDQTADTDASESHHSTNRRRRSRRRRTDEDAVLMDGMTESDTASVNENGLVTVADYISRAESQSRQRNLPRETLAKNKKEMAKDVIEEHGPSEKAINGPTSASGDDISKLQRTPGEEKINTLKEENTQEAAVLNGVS
UniProt P11021, residues 19-654: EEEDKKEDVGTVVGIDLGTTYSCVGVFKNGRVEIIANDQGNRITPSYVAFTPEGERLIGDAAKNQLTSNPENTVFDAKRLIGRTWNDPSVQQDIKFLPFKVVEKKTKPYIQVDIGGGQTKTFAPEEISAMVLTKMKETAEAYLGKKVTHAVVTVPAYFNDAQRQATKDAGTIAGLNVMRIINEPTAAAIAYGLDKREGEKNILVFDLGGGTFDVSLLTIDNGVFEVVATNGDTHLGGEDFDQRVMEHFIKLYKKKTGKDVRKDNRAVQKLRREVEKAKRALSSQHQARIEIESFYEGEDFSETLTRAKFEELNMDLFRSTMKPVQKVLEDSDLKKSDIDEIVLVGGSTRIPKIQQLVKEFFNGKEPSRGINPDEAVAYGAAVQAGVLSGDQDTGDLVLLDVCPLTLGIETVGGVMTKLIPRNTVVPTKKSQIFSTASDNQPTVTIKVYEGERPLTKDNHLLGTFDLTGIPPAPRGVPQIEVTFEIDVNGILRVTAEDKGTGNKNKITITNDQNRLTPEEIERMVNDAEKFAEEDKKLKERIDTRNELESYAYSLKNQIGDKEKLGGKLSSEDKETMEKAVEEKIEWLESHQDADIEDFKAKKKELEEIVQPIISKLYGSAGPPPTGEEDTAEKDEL
UniProt P11142: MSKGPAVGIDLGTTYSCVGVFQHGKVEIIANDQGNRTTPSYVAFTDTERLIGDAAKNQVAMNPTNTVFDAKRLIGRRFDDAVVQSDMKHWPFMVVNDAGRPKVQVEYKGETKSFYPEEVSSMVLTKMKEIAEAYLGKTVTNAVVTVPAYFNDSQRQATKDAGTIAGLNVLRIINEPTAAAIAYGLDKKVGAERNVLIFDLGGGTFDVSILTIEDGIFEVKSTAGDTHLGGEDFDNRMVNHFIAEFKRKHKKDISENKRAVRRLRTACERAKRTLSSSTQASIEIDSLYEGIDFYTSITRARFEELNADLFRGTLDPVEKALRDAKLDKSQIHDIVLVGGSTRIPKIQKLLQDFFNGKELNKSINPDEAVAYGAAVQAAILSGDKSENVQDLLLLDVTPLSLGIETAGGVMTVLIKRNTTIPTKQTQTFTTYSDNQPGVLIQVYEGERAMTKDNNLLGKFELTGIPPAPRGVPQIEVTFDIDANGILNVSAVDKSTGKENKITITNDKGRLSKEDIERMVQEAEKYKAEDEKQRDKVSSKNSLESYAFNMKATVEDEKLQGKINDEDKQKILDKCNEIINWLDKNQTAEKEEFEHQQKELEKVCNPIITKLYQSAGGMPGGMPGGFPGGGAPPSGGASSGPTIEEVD
UniProt P08238: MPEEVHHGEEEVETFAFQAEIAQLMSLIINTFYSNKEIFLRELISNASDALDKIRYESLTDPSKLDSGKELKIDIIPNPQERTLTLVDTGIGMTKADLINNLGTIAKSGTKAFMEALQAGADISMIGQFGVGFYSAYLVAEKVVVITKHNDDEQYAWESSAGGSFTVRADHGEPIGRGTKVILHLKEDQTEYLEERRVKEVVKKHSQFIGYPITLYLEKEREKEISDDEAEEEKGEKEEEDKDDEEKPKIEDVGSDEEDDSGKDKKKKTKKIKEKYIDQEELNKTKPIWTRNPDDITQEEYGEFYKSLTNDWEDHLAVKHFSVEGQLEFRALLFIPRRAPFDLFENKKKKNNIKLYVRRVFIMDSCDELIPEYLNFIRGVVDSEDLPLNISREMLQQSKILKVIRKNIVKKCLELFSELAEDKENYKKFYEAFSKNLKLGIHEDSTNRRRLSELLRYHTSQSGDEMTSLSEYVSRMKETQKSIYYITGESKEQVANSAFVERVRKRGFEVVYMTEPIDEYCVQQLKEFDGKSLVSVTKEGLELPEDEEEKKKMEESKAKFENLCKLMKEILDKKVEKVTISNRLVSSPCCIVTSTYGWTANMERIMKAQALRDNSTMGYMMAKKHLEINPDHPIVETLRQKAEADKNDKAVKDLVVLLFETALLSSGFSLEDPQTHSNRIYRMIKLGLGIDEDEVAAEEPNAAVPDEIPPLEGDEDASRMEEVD
UniProt P67809: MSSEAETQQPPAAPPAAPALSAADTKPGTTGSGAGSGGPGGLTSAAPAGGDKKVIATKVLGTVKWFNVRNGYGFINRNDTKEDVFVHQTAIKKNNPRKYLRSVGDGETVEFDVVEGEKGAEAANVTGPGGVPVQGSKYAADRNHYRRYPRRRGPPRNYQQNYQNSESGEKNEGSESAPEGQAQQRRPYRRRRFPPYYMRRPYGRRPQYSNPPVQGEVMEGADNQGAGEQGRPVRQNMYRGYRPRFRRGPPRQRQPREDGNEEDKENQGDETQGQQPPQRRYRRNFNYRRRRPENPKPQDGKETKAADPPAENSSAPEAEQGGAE

B1: nuclear Fragile-X mental retardation-interacting protein 2 (protein, UniProt Q7Z417 1-695)
chain: MEEKPGQPQPQHHHSHHHPHHHPQQQQQQPHHHHHYYFYNHSHNHHHHHHHQQPHQYLQHGAEGSPKAQPKPLKHEQKHTLQQHQETPKKKTGYGELNGNAGEREISLKNLSSDEATNPISRVLNGNQQVVDTSLKQTVKANTFGKAGIKTKNFIQKNSMDKKNGKSYENKSGENQSVDKSDTIPIPNGVVTNNSGYITNGYMGKGADNDGSGSESGYTTPKKRKARRNSAKGCENLNIVQDKIMQQETSVPTLKQGLETFKPDYSEQKGNRVDGSKPIWKYETGPGGTSRGKPAVGDMLRKSSDSKPGVSSKKFDDRPKGKHASAVASKEDSWTLFKPPPVFPVDNSSAKIVPKISYASKVKENLNKTIQNSSVSPTSSSSSSSSTGETQTQSSSRLSQVPMSALKSVTSANFSNGPVLAGTDGNVYPPGGQPLLTTAANTLTPISSGTDSVLQDMSLTSAAVEQIKTSLFIYPSNMQTMLLSTAQVDLPSQTDQQNLGDIFQNQWGLSFINEPSAGPETVTGKSSEHKVMEVTFQGEYPATLVSQGAEIIPSGTEHPVFPKAYELEKRTSPQVLGSILKSGTTSESGALSLEPSHIGDLQKADTSSQGALVFLSKDYEIESQNPLASPTNTLLGSAKEQRYQRGLERNDSWGSFDLRAAIVYHTKEMESIWNLQKQDPKRIITYNEAMDSPDQ
B2: THO complex subunit 5 (protein, UniProt Q13769 1-683)
chain: MSSESSKKRKPKVIRSDGAPAEGKRNRSDTEQEGKYYSEEAEVDLRDPGRDYELYKYTCQELQRLMAEIQDLKSRGGKDVAIEIEERRIQSCVHFMTLKKLNRLAHIRLKKGRDQTHEAKQKVDAYHLQLQNLLYEVMHLQKEITKCLEFKSKHEEIDLVSLEEFYKEAPPDISKAEVTMGDPHQQTLARLDWELEQRKRLAEKYRECLSNKEKILKEIEVKKEYLSSLQPRLNSIMQASLPVQEYLFMPFDQAHKQYETARHLPPPLYVLFVQATAYGQACDKTLSVAIEGSVDEAKALFKPPEDSQDDESDSDAEEEQTTKRRRPTLGVQLDDKRKEMLKRHPLSVMLDLKCKDDSVLHLTFYYLMNLNIMTVKAKVTTAMELITPISAGDLLSPDSVLSCLYPGDHGKKTPNPANQYQFDKVGILTLSDYVLELGHPYLWVQKLGGLHFPKEQPQQTVIADHSLSASHMETTMKLLKTRVQSRLALHKQFASLEHGIVPVTSDCQYLFPAKVVSRLVKWVTVAHEDYMELHFTKDIVDAGLAGDTNLYYMALIERGTAKLQAAVVLNPGYSSIPPVFQLCLNWKGEKTNSNDDNIRAMEGEVNVCYKELCGPWPSHQLLTNQLQRLCVLLDVYLETESHDDSVEGPKEFPQEKMCLRLFRGPSRMKPFKYNHPQGFFSHR
B3: THO complex subunit 6 (protein, UniProt Q86W42 1-341)
chain: MERAVPLAVPLGQTEVFQALQRLHMTIFSQSVSPCGKFLAAGNNYGQIAIFSLSSALSSEAKEESKKPVVTFQAHDGPVYSMVSTDRHLLSAGDGEVKAWLWAEMLKKGCKELWRRQPPYRTSLEVPEINALLLVPKENSLILAGGDCQLHTMDLETGTFTRVLRGHTDYIHCLALRERSPEVLSGGEDGAVRLWDLRTAKEVQTIEVYKHEECSRPHNGRWIGCLATDSDWMVCGGGPALTLWHLRSSTPTTIFPIRAPQKHVTFYQDLILSAGQGRCVNQWQLSGELKAQVPGSSPGLLSLSLNQQPAAPECKVLTAAGNSCRVDVFTNLGYRAFSLSF
B4: THO complex subunit 1 (protein, UniProt Q96FV9 1-657)
chain: MSPTPPLFSLPEARTRFTKSTREALNNKNIKPLLSTFSQVPGSENEKKCTLDQAFRGILEEEIINHSSCENVLAIISLAIGGVTEGICTASTPFVLLGDVLDCLPLDQCDTIFTFVEKNVATWKSNTFYSAGKNYLLRMCNDLLRRLSKSQNTVFCGRIQLFLARLFPLSEKSGLNLQSQFNLENVTVFNTNEQESTLGQKHTEDREEGMDVEEGEMGDEEAPTTCSIPIDYNLYRKFWSLQDYFRNPVQCYEKISWKTFLKYSEEVLAVFKSYKLDDTQASRKKMEELKTGGEHVYFAKFLTSEKLMDLQLSDSNFRRHILLQYLILFQYLKGQVKFKSSNYVLTDEQSLWIEDTTKSVYQLLSENPPDGERFSKMVEHILNTEENWNSWKNEGCPSFVKERTSDTKPTRIIRKRTAPEDFLGKGPTKKILMGNEELTRLWNLCPDNMEACKSETREHMPTLEEFFEEAIEQADPENMVENEYKAVNNSNYGWRALRLLARRSPHFFQPTNQQFKSLPEYLENMVIKLAKELPPPSEEIKTGEDEDEEDNDALLKENESPDVRRDKPVTGEQIEVFANKLGEQWKILAPYLEMKDSEIRQIECDSEDMKMRAKQLLVAWQDQEGVHATPENLINALNKSGLSDLAESLTNDNETNS
B5: RNA-binding protein 14 (protein, UniProt Q96PK6 1-669)
chain: MKIFVGNVDGADTTPEELAALFAPYGTVMSCAVMKQFAFVHMRENAGALRAIEALHGHELRPGRALVVEMSRPRPLNTWKIFVGNVSAACTSQELRSLFERRGRVIECDVVKDYAFVHMEKEADAKAAIAQLNGKEVKGKRINVELSTKGQKKGPGLAVQSGDKTKKPGAGDTAFPGTGGFSATFDYQQAFGNSTGGFDGQARQPTPPFFGRDRSPLRRSPPRASYVAPLTAQPATYRAQPSVSLGAAYRAQPSASLGVGYRTQPMTAQAASYRAQPSVSLGAPYRGQLASPSSQSAAASSLGPYGGAQPSASALSSYGGQAAAASSLNSYGAQGSSLASYGNQPSSYGAQAASSYGVRAAASSYNTQGAASSLGSYGAQAASYGAQSAASSLAYGAQAASYNAQPSASYNAQSAPYAAQQAASYSSQPAAYVAQPATAAAYASQPAAYAAQATTPMAGSYGAQPVVQTQLNSYGAQASMGLSGSYGAQSAAAATGSYGAAAAYGAQPSATLAAPYRTQSSASLAASYAAQQHPQAAASYRGQPGNAYDGAGQPSAAYLSMSQGAVANANSTPPPYERTRLSPPRASYDDPYKKAVAMSKRYGSDRRLAELSDYRRLSESQLSFRRSPTKSSLDYRRLPDAHSDYARYSGSYNDYLRAAQMHSGYQRRM

Key:
FLAG-PARP-2 = FLAG-PARP-2 (UniProt Q9UGN5); experiment: affinity purification with mass spectrometry; transiently overexpressed FLAG-PARP-2 or FLAG-PARG immunoprecipitated from human cell lysate (phosphate or Tris lysis buffer pH 8.0, 150 mM NaCl, 1% NP-40) with anti-FLAG M2 on protein G magnetic beads, 2 h at 4°C; control normal mouse IgG; SDS-PAGE, in-gel trypsin digestion, LC-MS/MS; each hit in at least two pull-downs
[1] = molecular target: Poly(ADP-ribose) polymerase 1 (PARP-1) (human (endogenous in SK-N-SH or HeLa)) (UniProt P09874); experiment: affinity purification with mass spectrometry; PARP-1 immunoprecipitated from human cell lysate (SK-N-SH or HeLa; phosphate or Tris lysis buffer pH 8.0, 150 mM NaCl, 1% NP-40) with monoclonal F1-23 on protein G magnetic beads, 2 h at 4°C; control normal mouse IgG; SDS-PAGE, in-gel trypsin digestion, LC-MS/MS; each hit in at least two pull-downs
FLAG-PARG = FLAG-PARG (UniProt Q86W56); experiment: affinity purification with mass spectrometry; transiently overexpressed FLAG-PARP-2 or FLAG-PARG immunoprecipitated from human cell lysate (phosphate or Tris lysis buffer pH 8.0, 150 mM NaCl, 1% NP-40) with anti-FLAG M2 on protein G magnetic beads, 2 h at 4°C; control normal mouse IgG; SDS-PAGE, in-gel trypsin digestion, LC-MS/MS; each hit in at least two pull-downs

Molecule | binding (FLAG-PARP-2) | binding [1] | binding (FLAG-PARG)
ATP-dependent DNA helicase II 70 kDa subunit (from UniProt P12956 1-609) | binds | – | –
ATP-dependent DNA helicase II 80 kDa subunit (from UniProt P13010 1-732) | binds | binds | –
ATP-dependent RNA helicase DDX5 (from UniProt P17844 1-614) | binds | – | binds
Baculoviral IAP repeat-containing protein 6 (from UniProt Q9NR09 1-4857) | – | binds | –
Bcl-2-associated transcription factor 1 (from UniProt Q9NYF8 1-920) | – | binds | –
DEAD box polypeptide 48 (from UniProt P38919 1-411) | binds | – | –
FXR2 (from UniProt P51116 1-673) | binds | – | binds
Fragile-X mental retardation syndrome-related protein 1 (from UniProt P51114 1-621) | binds | binds | binds
GRP78 (from UniProt P11021 19-654) | binds | binds | binds
HSC70 (from UniProt P11142 1-646) | binds | binds | binds
HSP90AB1 (from UniProt P08238 1-724) | binds | binds | binds
Polyadenylate-binding protein 1 (from UniProt P11940 1-636) | binds | – | binds
Replication Factor A protein 1 (from UniProt P27694 1-616) | binds | – | –
Replication factor C subunit 2 (from UniProt P35250 1-354) | – | binds | –
Replication factor C subunit 3 (from UniProt P40938 1-356) | – | binds | –
Replication factor C subunit 4 (from UniProt P35249 1-363) | – | binds | –
Replication factor C subunit 5 (from UniProt P40937 1-340) | – | binds | –
U5 snRNP 200 kDa (from UniProt O75643 1-2136) | – | binds | –
catalytic subunit of DNA-dependent protein kinase (DNA-PK) (from UniProt P78527 1-4128) (enzyme) | binds | – | –
heat shock protein 60kDa mitochondrial (from UniProt P10809 27-573) | binds | binds | –
hnRNP G (from UniProt P38159 1-391) | binds | – | –
hnRNP Q (from UniProt O60506 1-623) | – | – | binds
nuclease-sensitive element-binding protein 1 (from UniProt P67809 1-324) | binds | – | binds
splicing factor 3B1 (from UniProt O75533 1-1304) | – | binds | –
splicing factor 3B2 (from UniProt Q13435 1-895) | – | binds | –
B1 | – | – | binds
B2 | – | binds | –
B3 | – | binds | –
B4 | – | binds | –
B5 | binds | binds | –

No constants are given. Whether binding was seen depends on the method and setting. In cells and extracts the contact can be indirect. A yes stands for co-enrichment or nearness to the bait. Other partners may have been found.
